Data published in publication PMC4416315.
No constants are given. Whether binding was seen depends on the method and setting. Binding seen in cells or lysates may run through a third protein. Some binding calls cover weakened binding; strength is not graded here. For some assays here: Where a sequence is shown, tags or fusion partners need not be part of it.

Amino acid sequences for entries named in this document (tags omitted). A change or cut given only in a name is not applied to a line headed by its entry.
UniProt O75925: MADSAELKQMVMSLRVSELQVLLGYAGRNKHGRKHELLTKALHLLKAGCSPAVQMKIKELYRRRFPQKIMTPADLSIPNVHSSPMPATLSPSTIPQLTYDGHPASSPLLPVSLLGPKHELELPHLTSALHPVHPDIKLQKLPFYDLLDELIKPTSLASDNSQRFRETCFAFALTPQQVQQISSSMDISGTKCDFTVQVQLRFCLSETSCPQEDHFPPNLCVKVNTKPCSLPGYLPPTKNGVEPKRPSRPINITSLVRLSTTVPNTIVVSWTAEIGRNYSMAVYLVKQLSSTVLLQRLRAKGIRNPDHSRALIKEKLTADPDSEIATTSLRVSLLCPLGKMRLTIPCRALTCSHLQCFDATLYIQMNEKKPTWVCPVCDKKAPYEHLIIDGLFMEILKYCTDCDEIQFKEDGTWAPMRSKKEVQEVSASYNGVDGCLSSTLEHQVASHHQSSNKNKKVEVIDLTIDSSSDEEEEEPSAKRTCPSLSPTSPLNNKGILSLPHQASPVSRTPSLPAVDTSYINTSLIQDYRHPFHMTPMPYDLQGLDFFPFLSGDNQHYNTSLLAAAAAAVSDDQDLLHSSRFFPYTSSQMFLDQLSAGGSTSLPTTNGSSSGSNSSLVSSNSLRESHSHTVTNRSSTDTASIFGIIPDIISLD
UniProt Q9NVI1: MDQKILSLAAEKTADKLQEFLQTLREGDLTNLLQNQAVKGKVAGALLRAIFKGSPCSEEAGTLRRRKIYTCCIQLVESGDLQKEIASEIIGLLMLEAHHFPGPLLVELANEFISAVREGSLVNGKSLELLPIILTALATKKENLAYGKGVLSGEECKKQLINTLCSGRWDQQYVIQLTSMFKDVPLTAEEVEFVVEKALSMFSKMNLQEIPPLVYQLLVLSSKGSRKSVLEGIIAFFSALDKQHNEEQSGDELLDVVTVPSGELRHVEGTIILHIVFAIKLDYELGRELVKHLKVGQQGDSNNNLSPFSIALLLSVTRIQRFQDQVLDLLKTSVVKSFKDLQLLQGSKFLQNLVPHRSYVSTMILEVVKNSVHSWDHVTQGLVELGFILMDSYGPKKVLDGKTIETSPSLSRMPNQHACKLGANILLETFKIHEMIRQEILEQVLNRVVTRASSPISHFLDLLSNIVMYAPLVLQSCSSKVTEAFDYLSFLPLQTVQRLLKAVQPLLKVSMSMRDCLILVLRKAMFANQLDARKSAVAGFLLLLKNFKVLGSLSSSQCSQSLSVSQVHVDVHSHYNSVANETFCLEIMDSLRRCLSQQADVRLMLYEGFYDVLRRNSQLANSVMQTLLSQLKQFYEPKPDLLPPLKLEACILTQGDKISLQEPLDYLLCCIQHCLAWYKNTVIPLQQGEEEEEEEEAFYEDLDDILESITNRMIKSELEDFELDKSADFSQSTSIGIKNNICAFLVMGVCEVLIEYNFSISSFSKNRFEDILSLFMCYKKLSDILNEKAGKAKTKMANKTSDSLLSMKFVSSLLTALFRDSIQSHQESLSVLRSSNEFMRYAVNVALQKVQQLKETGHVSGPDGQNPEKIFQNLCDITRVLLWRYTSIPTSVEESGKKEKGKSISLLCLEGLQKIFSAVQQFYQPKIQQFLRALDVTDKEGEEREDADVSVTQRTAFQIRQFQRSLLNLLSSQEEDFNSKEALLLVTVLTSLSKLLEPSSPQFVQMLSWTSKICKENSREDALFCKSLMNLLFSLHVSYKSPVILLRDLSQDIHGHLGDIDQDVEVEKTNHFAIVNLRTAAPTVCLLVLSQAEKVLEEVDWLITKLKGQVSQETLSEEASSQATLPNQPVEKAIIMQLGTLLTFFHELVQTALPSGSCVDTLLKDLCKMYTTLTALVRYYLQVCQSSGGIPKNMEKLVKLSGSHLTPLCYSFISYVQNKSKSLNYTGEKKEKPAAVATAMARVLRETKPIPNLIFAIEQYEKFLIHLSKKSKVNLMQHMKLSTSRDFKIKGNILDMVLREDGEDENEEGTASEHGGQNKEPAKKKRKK

Experiments:
PIAS1 = PIAS1 (UniProt O75925); assay: co-IP; immunoprecipitates of PIAS1 (Figure S2E); format not shown
Strep-HA-PIAS4 = biological target: T1, Strep-HA-PIAS4 (UniProt Q8N2W9); assay: pull-down; Strep-HA-PIAS4 complexes purified with Strep-Tactin Sepharose from transfected U2OS cells under replication stress (indicated agents, 24 hr); immunoblotting
T1 sequence: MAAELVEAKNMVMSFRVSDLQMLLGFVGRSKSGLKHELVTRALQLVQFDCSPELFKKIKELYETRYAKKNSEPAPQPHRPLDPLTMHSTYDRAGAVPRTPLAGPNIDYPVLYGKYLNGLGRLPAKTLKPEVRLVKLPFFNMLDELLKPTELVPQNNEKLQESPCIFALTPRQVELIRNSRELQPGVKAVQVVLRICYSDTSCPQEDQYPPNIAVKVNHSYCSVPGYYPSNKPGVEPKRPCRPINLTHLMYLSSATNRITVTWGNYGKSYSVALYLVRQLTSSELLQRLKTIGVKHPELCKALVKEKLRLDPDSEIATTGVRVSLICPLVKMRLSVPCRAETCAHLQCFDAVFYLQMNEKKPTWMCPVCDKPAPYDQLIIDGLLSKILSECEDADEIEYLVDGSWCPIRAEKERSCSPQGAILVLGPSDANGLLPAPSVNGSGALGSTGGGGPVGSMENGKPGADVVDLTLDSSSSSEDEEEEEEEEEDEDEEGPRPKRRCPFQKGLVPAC

binding (PIAS1): binds
binding (Strep-HA-PIAS4): binds
Substance: FANCI/FANCD2 complex (ID complex) (from UniProt Q9NVI1 1-1328; Q9BXW9 1-1451)
